In publication PMC4450066:
Results are given in words; binding and its absence hold for the method and conditions named. For part of these data: In cells and extracts the contact can be indirect. For part of these data: Binding can be weak; no strength is given. For part of these data: Sequences can lack the tags named with a protein. Each block holds one substance with its values, some of them ahead of it.

Experiments:
GST:SPL11 (rice) = target: T1, GST:SPL11 (rice) (UniProt Q0IMG9); assay: pull-down; purified GST fusions of SPL11 or its ARM domain as bait; SPIN6 in vitro translated in rabbit reticulocyte lysate, detected with streptavidin-HRP; only the target purified
T1 sequence: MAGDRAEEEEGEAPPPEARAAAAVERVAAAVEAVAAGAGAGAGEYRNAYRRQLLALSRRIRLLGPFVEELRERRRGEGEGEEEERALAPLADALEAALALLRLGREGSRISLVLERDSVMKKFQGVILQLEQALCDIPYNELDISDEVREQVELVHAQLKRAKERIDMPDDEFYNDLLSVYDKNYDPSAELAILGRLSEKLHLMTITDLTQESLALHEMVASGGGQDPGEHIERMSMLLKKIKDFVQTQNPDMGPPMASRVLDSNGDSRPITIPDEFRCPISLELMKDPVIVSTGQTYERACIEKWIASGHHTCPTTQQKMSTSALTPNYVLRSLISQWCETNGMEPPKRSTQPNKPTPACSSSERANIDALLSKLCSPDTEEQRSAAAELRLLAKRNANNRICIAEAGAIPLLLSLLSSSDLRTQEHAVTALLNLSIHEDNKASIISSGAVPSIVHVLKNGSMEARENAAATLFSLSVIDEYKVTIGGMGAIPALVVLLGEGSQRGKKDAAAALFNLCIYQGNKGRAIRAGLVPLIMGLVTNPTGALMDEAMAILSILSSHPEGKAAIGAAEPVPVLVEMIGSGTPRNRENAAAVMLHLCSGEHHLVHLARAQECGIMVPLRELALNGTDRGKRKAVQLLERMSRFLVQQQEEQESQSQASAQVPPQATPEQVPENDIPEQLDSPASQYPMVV

[1] = target: T2, SPL11, full length, yeast two-hybrid fusion (rice) (UniProt Q0IMG9); assay: two-hybrid; ProQuest system (Invitrogen), BD vector pDBLeu and AD vector pPC86, yeast strain Mav203, growth on SD-Leu-Trp-His with 0 mM or 40 mM 3AT
T2 sequence: T1 sequence

NeYFP:SPL11m (rice) = target: T3, NeYFP:SPL11m (rice) (UniProt Q0IMG9); assay: split reporter; BiFC with NeYFP and CeYFP fusions co-expressed by agroinfiltration in N. benthamiana leaves, confocal microscopy
T3 sequence: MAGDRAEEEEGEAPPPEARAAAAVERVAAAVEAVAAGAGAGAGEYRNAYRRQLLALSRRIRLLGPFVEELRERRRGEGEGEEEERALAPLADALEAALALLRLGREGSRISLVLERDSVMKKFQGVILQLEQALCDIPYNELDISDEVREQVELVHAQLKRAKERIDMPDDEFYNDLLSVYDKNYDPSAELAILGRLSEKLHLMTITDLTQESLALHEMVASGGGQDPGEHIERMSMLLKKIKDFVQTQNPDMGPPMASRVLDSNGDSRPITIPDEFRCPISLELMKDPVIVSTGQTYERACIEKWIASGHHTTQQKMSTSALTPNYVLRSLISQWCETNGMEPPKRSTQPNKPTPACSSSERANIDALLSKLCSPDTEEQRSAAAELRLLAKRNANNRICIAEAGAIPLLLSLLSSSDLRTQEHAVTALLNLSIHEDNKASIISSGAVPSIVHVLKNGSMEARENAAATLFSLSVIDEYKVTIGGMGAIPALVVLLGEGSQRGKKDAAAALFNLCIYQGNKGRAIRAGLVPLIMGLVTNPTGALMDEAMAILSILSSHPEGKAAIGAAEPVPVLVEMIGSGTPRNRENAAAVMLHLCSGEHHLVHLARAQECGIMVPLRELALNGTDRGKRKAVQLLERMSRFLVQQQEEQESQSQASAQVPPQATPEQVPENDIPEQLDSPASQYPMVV

binding (GST:SPL11 (rice)): binds
Substance: His:SPIN6, in vitro translated (rice)

binding [1]: no binding
Substance: SPIN6 homolog RhoGAP protein Os03g24180, yeast two-hybrid fusion (rice)

binding (NeYFP:SPL11m (rice)): binds
Substance: SPIN6:CeYFP (rice)
